# Measurements as given in PubChem BioAssay AID1671190 (National Center for Advancing Translational Sciences (NCATS), 2021).
# The chains behind the UniProt entries cited, without tags or fusion partners. Where a name states a change or a piece, a line headed by the entry shows the natural chain unless it says otherwise.
# UniProt P18054: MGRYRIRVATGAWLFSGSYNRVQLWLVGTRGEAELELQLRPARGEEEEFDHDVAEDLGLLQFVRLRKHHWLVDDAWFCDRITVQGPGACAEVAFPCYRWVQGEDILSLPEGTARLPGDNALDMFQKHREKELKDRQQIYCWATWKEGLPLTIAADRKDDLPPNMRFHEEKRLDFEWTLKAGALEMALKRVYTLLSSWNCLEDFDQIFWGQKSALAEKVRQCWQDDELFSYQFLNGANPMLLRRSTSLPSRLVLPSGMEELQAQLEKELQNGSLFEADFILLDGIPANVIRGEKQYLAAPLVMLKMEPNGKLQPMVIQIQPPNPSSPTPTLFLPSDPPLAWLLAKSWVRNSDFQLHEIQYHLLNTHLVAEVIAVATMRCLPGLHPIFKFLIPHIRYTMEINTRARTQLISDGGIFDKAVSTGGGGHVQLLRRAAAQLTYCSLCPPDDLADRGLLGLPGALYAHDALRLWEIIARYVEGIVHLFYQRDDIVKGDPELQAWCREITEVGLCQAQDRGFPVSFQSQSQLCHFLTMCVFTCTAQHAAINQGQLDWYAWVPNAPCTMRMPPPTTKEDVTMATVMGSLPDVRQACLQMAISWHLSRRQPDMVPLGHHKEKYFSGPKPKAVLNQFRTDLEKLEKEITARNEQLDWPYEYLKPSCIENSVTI
# Hit rate of the full screen: of about 580,000 compounds, about 6,100 (1.1%) were called active. Inconclusive means that the source gave no clear call. Such entries were picked first, then a sample of the others. The call rests on the fitted dose curve; in most records, active means well fitted inhibition curve with a large enough effect; inconclusive means small, poorly fitted or top-dose-only effect, or another doubt; inactive means no such curve, though single readings can be large or run the other way. A potency beside an inconclusive call is a rough fit, not a confirmed value.
# Biological target: Polyunsaturated fatty acid lipoxygenase ALOX12 (Homo sapiens) (UniProt P18054)
# Assay: Primary qHTS assay for inhibitors of human arachidonate 12S-lipoxygenase (ALOX12): Round 2
# Settings: purified 12hLO, xylenol orange hydroperoxide absorbance; activity change, negative = inhibition: at 108 µM (top of the series) unless noted
# Procedure, shortened: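 Hydroperoxide product was detected by ferrous iron/xylenol orange as the 573 to 405 nm absorbance ratio. Arachidonic acid at 40 uM (final) was turned over for 30 min at room temperature by 150 nM human 12hLO, pH 7.0 Hepes buffer, after 15 min compound preincubation.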
# On the % scale 0 is the no-effect control and ±100 the full control effect; potency means the concentration at half of the fitted maximal effect.
SMILES,Potency,"activity change, negative = inhibition"
CC(C)(CC(=O)c1ccccc1)CC(=O)c1ccccc1,"inconclusive: 126 µM [inhibitor, partial curve, poor fit]",
Cc1nc2c(OCc3ccc(F)cc3)cccn2c1N(C)C(=O)CCC1CCCC1,"inconclusive: 50.1 µM [inhibitor, partial curve, poor fit]",
O=c1[nH]c(-c2ccc(-c3cccc(Cl)c3)o2)nc2ccccc12,"inconclusive: 44.7 µM [inhibitor, partial curve, poor fit]",
C=Cc1ccc(CN2CCCN(Cc3ccc(F)cc3)S2(=O)=O)cc1,,inactive: 0%
CC(OC(=O)c1cccc(-n2cnnn2)c1)C(=O)Nc1ccc(N(C)C)cc1 (configuration not stated),"inconclusive: 63.1 µM [inhibitor, partial curve, poor fit]",
Cc1ccc(C)n1C1C(=O)N(C)c2ccc(Cl)cc21 (configuration not stated),active: 44.7 µM,
COc1ccc(CC(=O)N2CCC(NS(=O)(=O)c3ccc(C)cc3)CC2)cc1,"inconclusive: 28.2 µM [inhibitor, partial curve, poor fit]",
C=CCN(CC(=O)NC(N)=O)Cc1ccccc1,,inactive: 8.72%
CC1CCCCC12NC(=O)N(CC(=O)NCc1ccccc1)C2=O (configuration not stated),"inconclusive: 70.8 µM [inhibitor, partial curve, poor fit]",
Cc1ccc(S(=O)(=O)N2CCN(CCNC(=O)c3cc(C)cc(C)c3)CC2)cc1,"inconclusive: 35.5 µM [inhibitor, partial curve, poor fit]",
O=C(c1cnccn1)N1CCC2(CCCN(c3ccncc3)C2)CC1,"inconclusive: 35.5 µM [inhibitor, single point]",
CN(C)Cc1nnc(C2CC(Nc3cncc(C(=O)N(C)C)n3)C2)n1C (configuration not stated),"inconclusive: 7.94 µM [inhibitor, full curve]",
COC(=O)c1c(C)oc2c1cc(NS(=O)(=O)c1c(C)cc(C)cc1C)c1ccccc12,,inconclusive: -46.8% [inhibitor]
Cc1ccc(S(=O)(=O)Nc2nc(C)c(C(=O)NN)s2)cc1,"inconclusive: 1.58 µM [inhibitor, partial curve, poor fit]",
COc1ccc(Cl)cc1NC(=S)Nc1ccccc1C,"inconclusive: 63.1 µM [inhibitor, partial curve, poor fit]",
Cc1ccc(-c2csc(-c3cc4c([nH]c3=O)CC(c3ccco3)CC4=O)n2)cc1 (configuration not stated),active: 2.24 µM,
CC(Oc1ccccc1)C(=O)Nc1cc(Cl)ccc1-n1cncn1 (configuration not stated),,inactive: -28.9%
CC1(Oc2ccccc2)CCN(Cc2ccc(-c3ccccn3)cc2)C1 (configuration not stated),"inconclusive: 89.1 µM [inhibitor, partial curve, poor fit]",
CCn1c(=O)cc(N2CCCCC2)[nH]c1=O,,inactive: 0%
CCOC(=O)Cn1c2ccc(F)cc2c2nc(C)sc21,,inactive: -6.98%
Cc1cc(/C=C2\SC(=S)NC2=O)c(C)n1C1CC1,"inconclusive: 39.8 µM [inhibitor, partial curve, poor fit]",

# Looked up by compound from the entries so far:
SMILES,Potency,"activity change, negative = inhibition"
COC(=O)c1c(C)oc2c1cc(NS(=O)(=O)c1c(C)cc(C)cc1C)c1ccccc12,,inconclusive: -46.8% [inhibitor]
Cc1cc(/C=C2\SC(=S)NC2=O)c(C)n1C1CC1,"inconclusive: 39.8 µM [inhibitor, partial curve, poor fit]",

# More entries follow.

SMILES,Potency,"activity change, negative = inhibition"
O=C1OCc2cc(NS(=O)(=O)c3cccs3)ccc21,,inactive: 0.882%
COc1ccc(-n2c(=O)c(-c3ccccc3)nc3cnc(N4CCNCC4)nc32)cc1,"inconclusive: 1.26 µM [inhibitor, full curve, poor fit]",
Cc1cccc(C(=O)OCc2cc(=O)n3c(C)csc3n2)c1,,inactive: -28.3%
CCOc1ccc(/C(O)=C2/C(=O)C(=O)N(CCCn3ccnc3)C2c2cccs2)cc1Cl (configuration not stated),"inconclusive: 112 µM [inhibitor, single point]",
CCCCN(CCCC)Cc1cc(=O)oc2cc(OC)ccc12,"inconclusive: 39.8 µM [inhibitor, partial curve, poor fit]",
CC1=C(C(=O)N2CCOCC2)C(c2ccccc2F)NC(=O)N1 (configuration not stated),"inconclusive: 112 µM [inhibitor, partial curve, poor fit]",
O=C(O)C[C@@H]1CCN(S(=O)(=O)c2cccs2)C[C@@H]1CC1=NCCc2ccccc21,"inconclusive: 28.2 µM [inhibitor, full curve]",
COC(=O)c1ccc(N/C(=N/S(=O)(=O)c2ccccc2)c2ccccc2)cc1,,inactive: -29.2%
O=C(CSc1ccc([N+](=O)[O-])cc1)Nc1cccc(S(=O)(=O)Nc2ccccc2F)c1,active: 39.8 µM,
CCOC(=O)[C@]12CCCC=C1N(Cc1ccc(Cl)cc1Cl)C(=O)[C@H](CC(=O)NCc1ccccc1)C2,"inconclusive: 89.1 µM [inhibitor, single point]",
Cc1nc2ccc(Cl)cc2cc1C(=O)N1CCN(CC(F)(F)F)CC1,,inactive: -4.6%
O=[N+]([O-])c1cc(F)cc(F)c1Nc1ccc(F)cc1,,inactive: -10.2%
Cc1cc(C)c(CN2CCCC(CNC(=O)c3ccc(F)cc3)C2)c(-n2cccn2)c1 (configuration not stated),"inconclusive: 56.2 µM [inhibitor, partial curve, poor fit]",
COc1ccc(N2CCN(C(=O)Cn3cnc4sc(C)c(S(=O)(=O)N5CCC(C)CC5)c4c3=O)CC2)cc1,,inactive: -23.8%
CCOP(=O)(OCC)c1nc(C(c2ccccc2)c2ccccc2)oc1NCc1cccnc1,"inconclusive: 35.5 µM [inhibitor, partial curve, poor fit]",
O=C(O)CNCc1cccc(F)c1,"inconclusive: 35.5 µM [inhibitor, partial curve, poor fit]",
CCOC(=O)c1ccc(N2C(=O)c3n[nH]c(C)c3C2c2ccc(O)c(OC)c2)cc1 (configuration not stated),"inconclusive: 89.1 µM [inhibitor, single point]",
O=C(NCCc1ccc2c(c1)OCCO2)c1ccc(NS(=O)(=O)c2ccc(Cl)s2)cc1,"inconclusive: 35.5 µM [inhibitor, partial curve, poor fit]",
Cc1cc(C)nc(N/N=C/C2=C(N3CCOCC3)C(=C\c3ccc(Cl)cc3)/CC2)n1,"inconclusive: 50.1 µM [inhibitor, partial curve, poor fit]",
COc1ccc(CNC(=S)N/N=C/c2ccc(O)c(OC)c2)cc1,active: 31.6 µM,
COC(=O)c1c(N2C(=O)CC(Sc3ccccc3C(=O)O)C2=O)sc2c1CCCC2 (configuration not stated),"inconclusive: 44.7 µM [inhibitor, partial curve]",
